In publication PMC11312933, “Mystery of the Passerini Reaction for the Synthesis of the Antimicrobial Peptidomimetics against Nosocomial Pathogenic Bacteria” (International Journal of Molecular Sciences, 2024):

Experiment: MTT cytotoxicity assay
Conditions: mouse, BALB/c3T3 mouse embryonic fibroblast cells

In the case of `O=C(O)c1cn(C2CC2)c2cc(N3CCNCC3)c(F)cc2c1=O` [ciprofloxacin, reference compound], the viability is reported as 85 to 89.9%.
